Measured data: PubChem BioAssay AID743454 (Peter MacCallum Cancer Centre, 2014)
The whole screen tested about 18,000 reagents; below is a part drawn at random. 450 of them (2.5%) count as active. 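Single biological run; no consistent viability z cut-off exists, so the class columns, not z-scores, define the calls.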 Unmarked entries are inactive. Reagent sequences are not shown.

- Test: 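Knock-downs lowering viability or raising caspase 3/7 activity in vorinostat-treated resistant cells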 (primary screen)
- System: human HCT116-VR colon cancer cells, selected for vorinostat resistance
- Reagent: siRNA pool against human genes, 40 nM siRNA pool
- Timing: vorinostat for 24 h, read-out about 72 h after transfection
- Conditions: vorinostat at 2.5 µM final
- Read-out: 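Two measures, CellTiter-Fluor viability and luminescent caspase 3/7 activity, each as fold change against same-plate mock wells, mean of duplicates, then screen-wide robust z-score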
- Reading the numbers: viability robust z-score: higher = more viable cells than screen typical; caspase robust z-score: higher = more caspase 3/7 activity than screen typical
- Hit rule: 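Hits are knock-downs in viability class RV1/RV2 or caspase class CA1/CA2, excluding ones that killed cells in the no-drug cell-count arm; hits then retested with single siRNAs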

Against MARK4 [SID56479022] the deposit lists viability hit class no change; caspase hit class no change; viability robust z-score -0.24; caspase robust z-score -0.64.
After knock-down of KCNA5 [SID134311633], the record shows viability hit class no change; caspase hit class no change; viability robust z-score -1.09; caspase robust z-score -0.01.
With knock-down of HSD17B1 [SID152151812], the screen gave viability hit class no change; caspase hit class no change; viability robust z-score 1.55; caspase robust z-score 0.16.
For INA [SID134319047], the values are viability hit class no change; caspase hit class no change; viability robust z-score 0.12; caspase robust z-score 0.92.
After knock-down of KLRC4 [SID135622563], the record shows viability hit class no change; caspase hit class no change; viability robust z-score 0.06; caspase robust z-score -0.79.
With knock-down of RAB28 [SID135621599], the record shows viability hit class no change; caspase hit class no change; viability robust z-score -0.46; caspase robust z-score -0.41.
For GLIPR1 [SID135623843], the entry reads viability hit class no change; caspase hit class no change; viability robust z-score 0.32; caspase robust z-score -0.38.
For WDR59 [SID134325481] the deposit lists viability hit class no change; caspase hit class no change; viability robust z-score -0.45; caspase robust z-score 2.12.
With knock-down of APOL2 [SID135623327] the results were viability hit class no change; caspase hit class no change; viability robust z-score -0.22; caspase robust z-score -0.17.
OR2W3 [SID152147862] scored viability hit class no change; caspase hit class no change; viability robust z-score -0.66; caspase robust z-score 4.79.
KAZN [SID152152252] scored viability hit class no change; caspase hit class no change; viability robust z-score 0.65; caspase robust z-score 4.03.
GREM2 [SID135623455] gave viability hit class no change; caspase hit class no change; viability robust z-score -0.31; caspase robust z-score -0.02.
ENTPD6 [SID134315586] scored viability hit class no change; caspase hit class no change; viability robust z-score 0.66; caspase robust z-score -0.78.
For ADAM12 [SID135620936], the entry reads viability hit class no change; caspase hit class no change; viability robust z-score -0.32; caspase robust z-score 0.66.
